{
  "source": "patent US20110262439A1",
  "about": "(Amgen, published 2011)",
  "binders": {"B1": {"name": "ME99B1HL (scFv)", "scFv": "EVQLLEQSGAELVRPGTSVKISCKATGYTFSNYWISWVKYRPGHGLEWIGDIYPGGSYTNYNEKFKGKVTLTADTSSRTAYMQLSGLTFEDSAIYYCARSGYDYGSDYDYHGMDYWGQGTTVTVSSGGGGSGGGGSGGGGSELQMTQSPASLSASVGETVTITCRASENIYSNLAWYQQKQGKSPQLLVYAATNLADGVPSRFSGSRSGSDYSLTISSLESEDFVDYYCLQYASYPYTFGGGTKLEIKTGDYKDDDDKHHHHHH", "notes": "murine anti-c-MET scFv; E. coli periplasmic preparation"}},
  "target": "mutated human c-MET antigen with murine membrane-distal epitopes (extracellular domains fused to a truncated variant of human EpCAM) (human/murine chimera)",
  "assay": "FACS, CHO transfectants, periplasmic preparation",
  "note": "No constants are given. Whether binding was seen depends on the method and setting. Some entries that bind do so weakly or less than the wild type.",
  "data": [
    {"binder": "B1", "values": [
      {"measurement": "binding", "value": "binds"}
    ]}
  ]
}
